# PubChem BioAssay AID1259254, NCATS, 2017
# Aim: 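Finding genes that stop cells copying their DNA twice in one cycle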 (primary screen)
# Cell system: human HCT116 colorectal cancer cells
# Reagents: single siRNA against human genes
# Time to read-out: 3 days
# Measured: 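Nuclei stained with Hoechst and imaged; cell-cycle phase assigned by DNA content; G2 share scaled per plate, non-targeting siRNA 0%, GMNN siRNA 100%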
# Reading the numbers: G2 robust z-score and G2 cells, % of GMNN control: higher = more G2 cells, more excess DNA replication; raw share of cells in G2: higher = larger share of cells with G2 DNA content
# Call rule: 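An siRNA counts as active if its G2 robust z-score lies at least 5 MADs above the screen median; here such calls match roughly 38% of GMNN control or more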
# In all, the deposit lists about 59,000 reagents; this is a part drawn at random. Over the whole deposit, about 1,550 (2.6%) are marked active. 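G2 share is only a proxy for re-replication; each gene was hit by three separate siRNAs, and active genes were retested.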 Raw values are not corrected between plates. Reagents against one gene are numbered here. Reagent sequences are not shown. Not given: the amount of reagent.
Gene,siRNA no.,G2 robust z-score,"G2 cells, % of GMNN control",raw share of cells in G2 (%),call
TF,1,3.46,27.3,15.1,inactive
TF,2,3.08,24.6,13.6,inactive
TF,3,-0.341,0.568,4.12,inactive
MT1E,1,6.18,46.4,22.6,active
MT1E,2,0.659,7.6,6.1,inactive
MT1E,3,4.2,32.5,18.8,inactive
SLC12A1,1,-0.44,-0.129,3.91,inactive
SLC12A1,2,1.68,14.8,10.7,inactive
SLC12A1,3,-1.11,-4.84,2.89,inactive
CYP3A4,1,-0.809,-2.73,3.16,inactive
CYP3A4,2,0.913,9.39,8.42,inactive
CYP3A4,3,0.197,4.35,6.51,inactive
KICS2,1,6.36,47.7,19.8,active
KICS2,2,-0.696,-1.93,2.32,inactive
KICS2,3,-0.39,0.222,3.15,inactive
EIF3G,1,1.32,12.2,10.1,inactive
EIF3G,2,4.13,32,16.5,inactive
EIF3G,3,1.36,12.5,9.2,inactive
TMEM253,1,-0.305,0.824,3.39,inactive
TMEM253,2,-0.256,1.17,4.08,inactive
TMEM253,3,-0.715,-2.06,2.53,inactive
DLX6,1,-0.764,-2.41,3.27,inactive
DLX6,2,4.64,35.6,17.7,inactive
DLX6,3,0.838,8.86,8.23,inactive
VN1R5,1,2.83,22.9,14,inactive
VN1R5,2,-0.0437,2.66,5.45,inactive
VN1R5,3,-0.0724,2.46,4.02,inactive
GRM7,1,-0.332,0.629,6.07,inactive
GRM7,2,1.59,14.2,9.47,inactive
GRM7,3,1.67,14.7,7.78,inactive
EPHA2,1,1.13,10.9,9.21,inactive
EPHA2,2,0.613,7.28,7.86,inactive
EPHA2,3,-1.16,-5.18,2.2,inactive
SLC39A6,1,-0.796,-2.63,3.31,inactive
SLC39A6,2,-0.0359,2.71,4.88,inactive
SLC39A6,3,0.747,8.22,9.89,inactive
KRTAP6-3,1,1.58,14.1,8.82,inactive
KRTAP6-3,2,0.0264,3.15,4.64,inactive
KRTAP6-3,3,2.28,19,11.8,inactive
LRP2,1,-0.284,0.969,5.74,inactive
LRP2,2,-0.316,0.747,5.77,inactive
LRP2,3,-1.09,-4.68,1.65,inactive
CHD9,1,-0.263,1.12,5.2,inactive
CHD9,2,-0.252,1.2,5.93,inactive
CHD9,3,1.35,12.5,8.71,inactive
SPINK5,1,-0.71,-2.03,2.85,inactive
SPINK5,2,-0.899,-3.36,4.49,inactive
SPINK5,3,-0.482,-0.424,3.16,inactive
ZSCAN29,1,0.135,3.92,4.44,inactive
ZSCAN29,2,-0.711,-2.03,2.46,inactive
ZSCAN29,3,-0.0157,2.86,4.53,inactive
TAPBP,1,0.43,6,7.04,inactive
TAPBP,2,4.31,33.3,17.4,inactive
TAPBP,3,-0.584,-1.14,3.76,inactive
GLRA1,1,3.74,29.2,15.9,inactive
GLRA1,2,-0.103,2.24,5.54,inactive
GLRA1,3,1.1,10.7,8.55,inactive
RAD51AP2,1,-0.342,0.559,3.38,inactive
RAD51AP2,2,5.34,40.5,20,active
RAD51AP2,3,0.218,4.5,4.74,inactive
PSTPIP1,1,1.39,12.8,9.28,inactive
PSTPIP1,2,0.732,8.12,8.12,inactive
PSTPIP1,3,-0.324,0.687,4.85,inactive
TMED1,1,-0.543,-0.85,6.14,inactive
TMED1,2,-0.997,-4.05,2.53,inactive
TMED1,3,-0.504,-0.578,5.44,inactive
DTWD2,1,1.91,16.4,9.63,inactive
DTWD2,2,-0.00851,2.91,4.17,inactive
DTWD2,3,0.337,5.34,4.89,inactive

Already shown: entries from further up.
Gene,siRNA no.,G2 robust z-score,"G2 cells, % of GMNN control",raw share of cells in G2 (%),call
TF,3,-0.341,0.568,4.12,inactive
MT1E,1,6.18,46.4,22.6,active
MT1E,2,0.659,7.6,6.1,inactive
MT1E,3,4.2,32.5,18.8,inactive
SLC12A1,1,-0.44,-0.129,3.91,inactive
SLC12A1,2,1.68,14.8,10.7,inactive
SLC12A1,3,-1.11,-4.84,2.89,inactive
CYP3A4,1,-0.809,-2.73,3.16,inactive
CYP3A4,2,0.913,9.39,8.42,inactive
CYP3A4,3,0.197,4.35,6.51,inactive
